Drawing on PMC3344845, “Structure of Bradavidin – C-Terminal Residues Act as Intrinsic Ligands” (PLoS ONE, 2012), this text covers binding for one molecule.

By UniProt entry, the sequences of proteins in these tests, tags left out. Residues count along the entry.
UniProt P02701, residues 25-152: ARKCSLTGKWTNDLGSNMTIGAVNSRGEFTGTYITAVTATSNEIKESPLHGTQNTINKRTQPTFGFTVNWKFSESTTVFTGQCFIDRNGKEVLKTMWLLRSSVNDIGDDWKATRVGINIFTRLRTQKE

Results are given in words; binding and its absence hold for the method and conditions named. Sequences can lack the tags named with a protein.

Assay [1] concerns the target streptavidin (Streptomyces avidinii) (UniProt P22629). Put plainly: ITC; core-bradavidin, avidin, streptavidin or rhizavidin in the cell, Brad-tag in the syringe, 40°C, 50 mM sodium phosphate pH 7.0, 100 mM NaCl; n is the stoichiometry per subunit; both purified. For orientation: ITC needs no label: the signal is the heat of the interaction.
A further assay addresses chicken avidin (chicken) (UniProt P02701). The description is as above.

SEKLSNTK [Brad-tag (synthetic peptide SEKLSNTK)]: the binding entry (in assay [1]; in the assay with chicken avidin (chicken)) was “no binding” in each case.
